Source: article PMC4467123
No constants are given. Whether binding was seen depends on the method and setting. In cells and extracts the contact can be indirect. Some entries that bind do so weakly or less than the wild type. Tags and fused reporters may be left off the sequences shown.

Protein sequences, listed by entry. Tags and fused reporters are not part of them. Lines headed by an entry give the natural chain unless they say otherwise; changes in a name come on top. Residues count along the entry.
UniProt P42224, residues 1-712: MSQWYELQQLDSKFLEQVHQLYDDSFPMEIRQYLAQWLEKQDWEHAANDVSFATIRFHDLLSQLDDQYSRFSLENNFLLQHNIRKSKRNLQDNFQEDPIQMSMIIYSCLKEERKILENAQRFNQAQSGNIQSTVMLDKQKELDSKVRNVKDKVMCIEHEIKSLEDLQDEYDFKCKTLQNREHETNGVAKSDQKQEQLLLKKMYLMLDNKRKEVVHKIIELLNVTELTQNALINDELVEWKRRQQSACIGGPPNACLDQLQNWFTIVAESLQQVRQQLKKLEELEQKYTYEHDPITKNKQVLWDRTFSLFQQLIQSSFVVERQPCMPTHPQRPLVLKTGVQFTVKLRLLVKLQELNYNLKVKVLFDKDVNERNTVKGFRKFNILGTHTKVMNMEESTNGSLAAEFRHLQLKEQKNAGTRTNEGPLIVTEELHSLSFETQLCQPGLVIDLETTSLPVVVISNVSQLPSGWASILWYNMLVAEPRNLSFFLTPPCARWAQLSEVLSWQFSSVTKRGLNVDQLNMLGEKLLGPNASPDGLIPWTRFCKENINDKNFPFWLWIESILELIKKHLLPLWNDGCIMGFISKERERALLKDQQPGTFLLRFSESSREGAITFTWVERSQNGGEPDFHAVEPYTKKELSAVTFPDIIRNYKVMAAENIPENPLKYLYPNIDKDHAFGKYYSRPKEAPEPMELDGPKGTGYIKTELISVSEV

Biological target: T1, Flag-tagged N-myc (and STAT) interactor (NMI) (human) (UniProt Q13287)
T1 sequence: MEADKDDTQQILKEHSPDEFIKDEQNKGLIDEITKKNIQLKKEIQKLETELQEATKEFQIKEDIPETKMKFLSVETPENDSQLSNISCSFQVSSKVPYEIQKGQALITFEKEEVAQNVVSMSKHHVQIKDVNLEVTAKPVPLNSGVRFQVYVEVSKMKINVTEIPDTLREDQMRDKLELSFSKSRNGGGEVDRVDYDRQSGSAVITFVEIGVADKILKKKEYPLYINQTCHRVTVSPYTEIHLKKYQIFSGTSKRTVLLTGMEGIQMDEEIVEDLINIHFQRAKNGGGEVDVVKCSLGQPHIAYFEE
Experiment: co-IP; U251 cells stably overexpressing Flag-tagged NMI and STAT1 (α or β) via lentivirus; NP-40 lysis buffer (50 mM Tris-HCl pH 7.5, 150 mM NaCl, 1% NP-40); anti-Flag M2 magnetic beads overnight at 4°C, four washes; blot with STAT1 antibody

binding: binds
Substance: STAT1β (STAT1 isoform β, transcript variant V2) (from UniProt P42224-2 1-712)
